Paper doi:10.1101/2020.04.07.031013

T1: GST-YidC1CT (Streptococcus mutans UA159) (UniProt Q8DVX3)
T1 sequence: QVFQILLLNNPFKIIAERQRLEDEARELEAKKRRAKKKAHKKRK

T2: GST-YidC2CT (Streptococcus mutans UA159) (UniProt Q8DSP8)
T2 sequence: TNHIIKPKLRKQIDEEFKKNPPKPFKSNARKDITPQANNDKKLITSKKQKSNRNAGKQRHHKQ

T3: GST-YidC2CT (Streptococcus mutans UA159), Q8DSP8
T3 chain: T2 sequence

B1: Ffh, Q54431 1-516 (protein)
chain: MAFESLTERLQGVFKNLRGKRKLSEKDVQEVTKEIRLALLEADVALPVVKEFIKRVRKRAVGHEVIDTLDPSQQIIKIVNEELTAVLGSETAEIEKSSKIPTIIMMVGLQGAGKTTFAGKLANKLVKEENARPLMIAADIYRPAAIDQLKTLGQQINVPVFDMGTEHSAVEIVSQGLAQAKENRNDYVLIDTAGRLQIDEKLMTELRDIKALANPNEILLVVDSMIGQEAANVAREFNQQLEVTGVILTKIDGDTRGGAALSVRQITGKPIKFTGTGEKITDIETFHPDRMSSRILGMGDLLTLIEKASQDYDEQKSAELAEKMRENSFDFNDFIEQLDQVQNMGSMEDILKMIPGMANNPALANVKVDEGEIARKRAIVSSMTPEERENPDLLTPSRRRRIASGSGNTFVNVNKFIKDFNQAKKMMQGVMSGDMNKVMKQMGINPNNMPKNMDSSALEGMMGQGGMPDMSELSGTNMDVSQMFGGGLKGKVGEFAMKQSMKKMAKRMKKAKKRKK
B2: Ffh (protein, UniProt Q54431 1-516)
chain: B1 chain

Columns and labels:
Assay in all cases: affinity purification with mass spectrometry
[1] = molecular target: T1, GST-YidC1CT (Streptococcus mutans UA159)
[2] = molecular target: T2, GST-YidC2CT (Streptococcus mutans UA159)
[3] = molecular target: YidC2 (Streptococcus mutans (endogenous in UA159 and NG8)) (UniProt Q8DSP8)
[4] = molecular target: T3, GST-YidC2CT (Streptococcus mutans …); details: remark: other sources report otherwise
[5] = molecular target: T1, GST-YidC1CT (Streptococcus mutans UA159); remark: listed apart in the source

Row | Molecule | binding [1] | binding [2] | further results
1 | histidine kinase (SMU_486) | binds |  | 
2 | YajC | no binding | no binding | 
3 | SecA (from UniProt Q8DSF0 1-839) |  |  | binding [3]: binds
4 | cell division protein FtsH (from UniProt Q8DWM7) | binds |  | 
5 | SecE (from UniProt Q8DS81 1-58) | no binding | no binding | 
6 | SecY (from UniProt Q8DS32) | no binding | no binding | 
7 | SecG | no binding | no binding | 
8 | B1 |  |  | binding [4]: binds
9 | B2 |  |  | binding [5]: no binding

Where two headings read alike, the source gives them in different places. No constants are given. Whether binding was seen depends on the method and setting. Binding seen in cells or lysates may run through a third protein. These calls come from enrichment with a bait or labelling near it, and not all partners need be listed. For some of these results: A no says only that the protein was not detected with the bait. For some of these results: Sequences can lack the tags named with a protein.
